Assay results reported in paper PMC6541287 (2019).
These are yes or no findings as the source states them, for the method shown. Binding can be weak; no strength is given. Sequences can lack the tags named with a protein.

These substances were tested against T1, recombinant Eh14-3-3 Protein 3 (EhP3) (E. histolytica) (UniProt P42650) (assay: SPR; Autolab SPR; EhP3 immobilised on NHS/EDC-activated gold surface in HEPES buffer pH 7.4; recombinant actin binding proteins injected at 200 nM, 20 μl/min, reference flow cell, 25°C; both purified).
T1 sequence: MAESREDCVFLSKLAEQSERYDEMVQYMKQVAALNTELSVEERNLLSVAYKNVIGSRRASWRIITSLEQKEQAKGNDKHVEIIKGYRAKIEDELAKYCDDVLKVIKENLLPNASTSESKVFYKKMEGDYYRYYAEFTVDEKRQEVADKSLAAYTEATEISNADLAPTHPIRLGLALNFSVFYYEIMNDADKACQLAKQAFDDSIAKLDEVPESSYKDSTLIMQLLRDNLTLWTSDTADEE
In the case of recombinant Actophorin (E. histolytica), the binding is reported as “no binding (tested: 200 nM)”. “recombinant EhCoactosin (E. histolytica)” was tested, and the binding was “binds”. With recombinant Filamin (E. histolytica) the binding was “no binding (tested: 200 nM)”. In the case of recombinant Profilin A (E. histolytica), the binding is reported as “no binding (tested: 200 nM)”. For recombinant Profilin B (E. histolytica), the binding was “no binding (tested: 200 nM)”. For recombinant Twinfilin (E. histolytica), the binding was “no binding (tested: 200 nM)”.
